Results are given in words; binding and its absence hold for the method and conditions named. Binding seen in cells or lysates may run through a third protein. Some results given as binding are weak or reduced against the parent protein; the word gives no strength.
Tests used:
GST-p38α = GST-p38α (UniProt Q16539); assay: pull-down; lysates of HEK293T cells transfected with HA-tagged PIASs for 48 h incubated with purified GST-p38α overnight at 4 °C, immunoblotting; only the target purified
[1] = molecular target: p38α (endogenous) (human (endogenous in HGC27)) (UniProt Q16539); assay: co-IP; endogenous proteins in HGC27 cells; which partner was precipitated is not told

Protein sequences, listed by entry. Tags and fused reporters are not part of them. Lines headed by an entry give the natural chain unless they say otherwise; changes in a name come on top. Chains listed by the source or under a name are the forms on record and can include a tag or linker.
UniProt Q16539: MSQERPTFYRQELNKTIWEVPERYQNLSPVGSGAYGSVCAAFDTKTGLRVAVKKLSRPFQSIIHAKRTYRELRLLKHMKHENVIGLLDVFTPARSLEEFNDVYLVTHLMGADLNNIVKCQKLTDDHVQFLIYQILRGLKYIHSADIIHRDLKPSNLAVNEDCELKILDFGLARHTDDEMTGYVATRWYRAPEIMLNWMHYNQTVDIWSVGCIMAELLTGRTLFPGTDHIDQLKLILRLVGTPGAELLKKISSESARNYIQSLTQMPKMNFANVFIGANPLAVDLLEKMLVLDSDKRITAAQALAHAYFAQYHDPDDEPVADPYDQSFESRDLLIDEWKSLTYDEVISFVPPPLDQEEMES
PIASxα (endogenous) (O75928-2, form named): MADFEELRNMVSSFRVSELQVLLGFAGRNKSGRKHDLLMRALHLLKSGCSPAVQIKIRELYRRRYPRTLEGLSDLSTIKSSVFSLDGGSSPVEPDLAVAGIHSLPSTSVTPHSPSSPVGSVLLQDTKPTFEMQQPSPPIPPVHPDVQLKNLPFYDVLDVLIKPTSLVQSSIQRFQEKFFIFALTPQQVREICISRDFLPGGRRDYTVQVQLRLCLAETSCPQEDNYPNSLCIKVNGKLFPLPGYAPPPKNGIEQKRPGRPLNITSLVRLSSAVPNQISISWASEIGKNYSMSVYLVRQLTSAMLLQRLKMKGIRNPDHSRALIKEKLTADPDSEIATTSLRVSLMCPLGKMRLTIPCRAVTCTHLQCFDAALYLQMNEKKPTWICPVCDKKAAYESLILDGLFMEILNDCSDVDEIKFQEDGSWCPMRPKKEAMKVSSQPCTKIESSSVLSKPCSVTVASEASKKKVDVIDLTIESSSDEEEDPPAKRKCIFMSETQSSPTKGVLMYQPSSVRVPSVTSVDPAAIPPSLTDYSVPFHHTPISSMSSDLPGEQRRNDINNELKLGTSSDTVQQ

Substance	binding (GST-p38α)	binding [1]
HA-PIASxα (from UniProt O75928-2 1-572)	binds	
PIASxα (endogenous) (from UniProt O75928-2 1-572)		binds

Reference: paper PMC8536665
